# Laboratory results reported in the supplement of paper PMC4604168 (melanoma cell lines).
# The list shows a part of the results. Many values rest on one well or one pass, so single values are uncertain.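 The apoptosis fraction was the count of cleaved-PARP antibody-stained nuclei relative to all DNA-stained nuclei, imaged in 1,536-well plates. Screening doses were set so most cells survived, and baseline and induced cleaved-PARP levels vary greatly across cell lines.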
# Key:
# Assay in all cases: cleaved PARP positive nuclei fraction relative to DMSO control; melanoma cells; higher = more apoptosis
# Conditions in all cases: library dose: low library concentration; 72 h
# [1] = system: WM115
# [2] = system: WM1716
# [3] = system: WM1745
# [4] = system: WM3526
# [5] = system: WM3619
# [6] = system: WM451Lu
SMILES,cleaved PARP positive nuclei fraction [1] [%],cleaved PARP positive nuclei fraction [2] [%],cleaved PARP positive nuclei fraction [3] [%],cleaved PARP positive nuclei fraction [4] [%],cleaved PARP positive nuclei fraction [5] [%],cleaved PARP positive nuclei fraction [6] [%]
"COc1ccc(-c2ccc3c(N4CCOCC4)nc(N4C[C@@H](C)O[C@@H](C)C4)nc3n2)cc1CO + Oc1cc(-c2nc(-c3ccccc3)[nH]c2-c2ccncc2)ccc1Cl [L779450] (first compound 0.02 µM, partner dose 0.2 µM)",237,194,103,85.8,112,86.8
"COc1ccc(-c2ccc3c(N4CCOCC4)nc(N4C[C@@H](C)O[C@@H](C)C4)nc3n2)cc1CO + O=C(O)C(=O)Nc1sc2c(c1C(=O)O)CCNC2 [TCS401] (first compound 0.02 µM, partner dose 1.66667 µM)",113,126,105,33.3,70.2,32.1
"Oc1cc(-c2nc(-c3ccccc3)[nH]c2-c2ccncc2)ccc1Cl + O=C(O)C(=O)Nc1sc2c(c1C(=O)O)CCNC2 [TCS401] (first compound 0.2 µM, partner dose 1.66667 µM)",63.6,84.5,150,106,82.4,114
"O=C(Nc1ccccc1)c1cc([N+](=O)[O-])ccc1Cl + Oc1cc(-c2nc(-c3ccccc3)[nH]c2-c2ccncc2)ccc1Cl [L779450] (first compound 2 µM, partner dose 0.2 µM)",137,78.9,109,51.5,104,63.2
"CN(NC(=O)CC(=O)NN(C)C(=S)c1ccccc1)C(=S)c1ccccc1 + COC(=O)c1sccc1S(=O)(=O)Nc1ccc(Nc2ccccc2)cc1OC [GSK0660] (first compound 0.006 µM, partner dose 1 µM)",67.9,118,222,65.8,236,153
"CCc1ccc(CCOc2ccc(CC3SC(=O)NC3=O)cc2)nc1 (stereo not drawn) [pioglitazone] + O=S(=O)(c1ccccc1)N(CC(F)(F)F)c1ccc(C(O)(C(F)(F)F)C(F)(F)F)cc1 [T0901317] (first compound 2 µM, partner dose 1.4 µM)",100,198,121,157,158,96.9
"COc1ccc2c(c1)CCC1C2CCC2(C)C(NCCCCCCN3C(=O)C=CC3=O)CCC12 (stereo not drawn) + O=c1cc(-c2cccc3c2Sc2ccccc2S3)oc(N2CCOCC2)c1 [KU55933] (first compound 0.4 µM, partner dose 1 µM)",100,99.5,110,295,73.2,71.2
"COc1ccc(-c2ccc3c(N4CCOCC4)nc(N4C[C@@H](C)O[C@@H](C)C4)nc3n2)cc1CO + COc1cc(N2CCC(N3CCN(C)CC3)CC2)ccc1Nc1ncc(Cl)c(Nc2ccccc2S(=O)(=O)C(C)C)n1 [NVP-TAE684] (first compound 0.02 µM, partner dose 0.08 µM)",142,101,97.1,40.1,85.1,93.3
"CCc1ccc(CCOc2ccc(CC3SC(=O)NC3=O)cc2)nc1 (stereo not drawn) [pioglitazone] + COc1cc(N2CCC(N3CCN(C)CC3)CC2)ccc1Nc1ncc(Cl)c(Nc2ccccc2S(=O)(=O)C(C)C)n1 [NVP-TAE684] (first compound 2 µM, partner dose 0.08 µM)",245,110,128,102,84.4,131
"NCC(=O)Nc1ccc(-n2nc(C(F)(F)F)cc2-c2ccc3c(ccc4ccccc43)c2)cc1 + Oc1cc(-c2nc(-c3ccccc3)[nH]c2-c2ccncc2)ccc1Cl [L779450] (first compound 1 µM, partner dose 0.2 µM)",176,137,106,102,75.7,397
"COc1ccc(COc2ccc(Cc3cnc(N)nc3N)cc2OC)cc1 + O=C(O)C(=O)Nc1sc2c(c1C(=O)O)CCNC2 [TCS401] (first compound 1 µM, partner dose 1.66667 µM)",202,99.8,127,375,127,49.2
"CN(C)S(=O)(=O)c1ccc2c(c1)/C(=C/c1cc3c([nH]1)CCCC3)C(=O)N2 + O=C(O)C(=O)Nc1sc2c(c1C(=O)O)CCNC2 [TCS401] (first compound 0.4 µM, partner dose 1.66667 µM)",154,83.7,114,37.4,111,167
"O=S(=O)(c1ccccc1)N(CC(F)(F)F)c1ccc(C(O)(C(F)(F)F)C(F)(F)F)cc1 + COc1cc2ncnc(Nc3ccc(Oc4ccccc4)cc3)c2cc1OC [SrcI1] (first compound 1.4 µM, partner dose 2 µM)",69.7,97.1,128,69.5,98.9,61.3
"O=C(Nc1ccccc1)c1cc([N+](=O)[O-])ccc1Cl + CC(C)CCN1c2nc(Nc3cc(F)c(O)c(F)c3)ncc2N(C)C(=O)C1C [BID1870] (first compound 2 µM, partner dose 0.2 µM)",113,87.4,110,100,155,75.5
"O=C1NC(=O)/C(=C/c2ccc(-c3ccc(F)cc3O)o2)S1 + COc1cc(N2CCC(N3CCN(C)CC3)CC2)ccc1Nc1ncc(Cl)c(Nc2ccccc2S(=O)(=O)C(C)C)n1 [NVP-TAE684] (first compound 1 µM, partner dose 0.08 µM)",105,99.9,93.3,114,89.5,188
"CN(NC(=O)CC(=O)NN(C)C(=S)c1ccccc1)C(=S)c1ccccc1 + COc1cc2ncnc(Nc3ccc(Oc4ccccc4)cc3)c2cc1OC [SrcI1] (first compound 0.006 µM, partner dose 2 µM)",179,175,195,67.2,377,156
"O=S(=O)(c1ccccc1)N(CC(F)(F)F)c1ccc(C(O)(C(F)(F)F)C(F)(F)F)cc1 + O=C(O)C(=O)Nc1sc2c(c1C(=O)O)CCNC2 [TCS401] (first compound 1.4 µM, partner dose 1.66667 µM)",61.8,82,127,65,86,85.5
"COc1cc2ncnc(Nc3ccc(Oc4ccccc4)cc3)c2cc1OC + Oc1nc(-c2ccc(C(F)(F)F)cc2)nc2c1CSCC2 [XAV939] (first compound 2 µM, partner dose 2 µM)",75.4,101,127,71.3,89.9,57
"O=S(=O)(c1ccccc1)N(CC(F)(F)F)c1ccc(C(O)(C(F)(F)F)C(F)(F)F)cc1 + O=C1NC(=O)/C(=C/c2ccc(-c3ccc(F)cc3O)o2)S1 [AS252424] (first compound 1.4 µM, partner dose 1 µM)",182,123,130,74.5,114,37.5
"N#Cc1c(O)c2c(-c3ccc(-c4ccccc4O)cc3)csc2[nH]c1=O + COc1ccc(-c2ccc3c(N4CCOCC4)nc(N4C[C@@H](C)O[C@@H](C)C4)nc3n2)cc1CO [KU0063794] (first compound 2 µM, partner dose 0.02 µM)",236,72.1,99.1,75.4,77.7,65.6
"CN(C)S(=O)(=O)c1ccc2c(c1)/C(=C/c1cc3c([nH]1)CCCC3)C(=O)N2 + N#Cc1c(O)c2c(-c3ccc(-c4ccccc4O)cc3)csc2[nH]c1=O [A769662] (first compound 0.4 µM, partner dose 2 µM)",108,119,245,71.6,72.5,186
"O=C(O)c1ccc(-c2c[nH]c3ncc(-c4ccccc4)cc23)cc1C1CCCC1 + COC(=O)c1sccc1S(=O)(=O)Nc1ccc(Nc2ccccc2)cc1OC [GSK0660] (first compound 0.16 µM, partner dose 1 µM)",21.7,75.3,100,96.7,106,64.5
"Oc1cc(-c2nc(-c3ccccc3)[nH]c2-c2ccncc2)ccc1Cl + CCCCCCCCCCCC1=C(O)C(=O)C=C(O)C1=O [Embelin] (first compound 0.2 µM, partner dose 1.2 µM)",85.4,11.3,104,67.5,79.8,76.9
"O=C(Nc1ccccc1)c1cc([N+](=O)[O-])ccc1Cl + CCN(CC)CCCCNc1ncc2cc(-c3cc(OC)cc(OC)c3)c(NC(=O)NC(C)(C)C)nc2n1 [PD173074] (first compound 2 µM, partner dose 0.1 µM)",92.6,42.7,92.9,53.3,91.3,45.8
"O=C(O)c1ccc(-c2c[nH]c3ncc(-c4ccccc4)cc23)cc1C1CCCC1 + O=C(Nc1ccccc1)c1cc([N+](=O)[O-])ccc1Cl [GW9662] (first compound 0.16 µM, partner dose 2 µM)",194,74.2,94.3,73.6,76.9,249
"Oc1nc(-c2ccc(C(F)(F)F)cc2)nc2c1CSCC2 + CC(C)CCN1c2nc(Nc3cc(F)c(O)c(F)c3)ncc2N(C)C(=O)C1C [BID1870] (first compound 2 µM, partner dose 0.2 µM)",104,244,150,125,108,65.9
"O=S(=O)(c1ccccc1)N(CC(F)(F)F)c1ccc(C(O)(C(F)(F)F)C(F)(F)F)cc1 + O=c1cc(-c2cccc3c2Sc2ccccc2S3)oc(N2CCOCC2)c1 [KU55933] (first compound 1.4 µM, partner dose 1 µM)",165,116,86.6,74.6,64,31.9
"COC(=O)c1sccc1S(=O)(=O)Nc1ccc(Nc2ccccc2)cc1OC + O=S(=O)(c1ccccc1)N(CC(F)(F)F)c1ccc(C(O)(C(F)(F)F)C(F)(F)F)cc1 [T0901317] (first compound 1 µM, partner dose 1.4 µM)",99.6,44.3,127,73.4,74,127

# Shown with bars between the fields: entries from further up
SMILES | cleaved PARP positive nuclei fraction [1] [%] | cleaved PARP positive nuclei fraction [2] [%] | cleaved PARP positive nuclei fraction [3] [%] | cleaved PARP positive nuclei fraction [4] [%] | cleaved PARP positive nuclei fraction [5] [%] | cleaved PARP positive nuclei fraction [6] [%]
COc1ccc(-c2ccc3c(N4CCOCC4)nc(N4C[C@@H](C)O[C@@H](C)C4)nc3n2)cc1CO + COc1cc(N2CCC(N3CCN(C)CC3)CC2)ccc1Nc1ncc(Cl)c(Nc2ccccc2S(=O)(=O)C(C)C)n1 [NVP-TAE684] (first compound 0.02 µM, partner dose 0.08 µM) | 142 | 101 | 97.1 | 40.1 | 85.1 | 93.3
O=C1NC(=O)/C(=C/c2ccc(-c3ccc(F)cc3O)o2)S1 + COc1cc(N2CCC(N3CCN(C)CC3)CC2)ccc1Nc1ncc(Cl)c(Nc2ccccc2S(=O)(=O)C(C)C)n1 [NVP-TAE684] (first compound 1 µM, partner dose 0.08 µM) | 105 | 99.9 | 93.3 | 114 | 89.5 | 188
COc1cc2ncnc(Nc3ccc(Oc4ccccc4)cc3)c2cc1OC + Oc1nc(-c2ccc(C(F)(F)F)cc2)nc2c1CSCC2 [XAV939] (first compound 2 µM, partner dose 2 µM) | 75.4 | 101 | 127 | 71.3 | 89.9 | 57
O=S(=O)(c1ccccc1)N(CC(F)(F)F)c1ccc(C(O)(C(F)(F)F)C(F)(F)F)cc1 + O=c1cc(-c2cccc3c2Sc2ccccc2S3)oc(N2CCOCC2)c1 [KU55933] (first compound 1.4 µM, partner dose 1 µM) | 165 | 116 | 86.6 | 74.6 | 64 | 31.9
COC(=O)c1sccc1S(=O)(=O)Nc1ccc(Nc2ccccc2)cc1OC + O=S(=O)(c1ccccc1)N(CC(F)(F)F)c1ccc(C(O)(C(F)(F)F)C(F)(F)F)cc1 [T0901317] (first compound 1 µM, partner dose 1.4 µM) | 99.6 | 44.3 | 127 | 73.4 | 74 | 127
